Test results published in paper PMC3534021, “Structure of the TPR Domain of AIP: Lack of Client Protein Interaction with the C-Terminal α-7 Helix of the TPR Domain of AIP Is Sufficient for Pituitary Adenoma Predisposition” (PLoS ONE, 2012).

System: AIP TPR-domain E192R mutant
Assay: Isothermal titration calorimetry, E192R AIP TPR-domain
Assay type: binding, human
Details: ITC
Method: The TPR domain (residues 166–330) of human AIP was expressed as a PreScission cleavable His-tagged protein from pTWO-E (pET-17b derived; personal communication, A. W. Oliver, Sussex University). The TPR domain was purified by talon-affinity chromatography (Clontech, Oxford, UK), then concentrated and desalted on a HIPrep 26/10 desalting column equilibrated in 20 mM Tris pH 7.5 containing 1 mM EDTA. The sample was then cleaved overnight with GST-tagged PreScision protease. The cleaved protein was subsequently passed through a GST column equilibrated in 20 mM Tris pH 7.5, 1 mM EDTA and 150 mM NaCl and then through a second Talon column to remove any remaining uncleaved protein. The flow through was then concentrated and subjected to superdex 75HR gel-filtration chromatography equilibrated in 20 mM Tris pH 7.5, 1 mM EDTA, 1 mM DTT and 500 mM NaCl. Pure TPR domain were concentrated and then desalted on a HIPrep 26/10 column equilibrated in 20 mM Tris pH 7.5 containing 1 mM EDTA. The protein was stored frozen at 2 mg ml^−1.
The heat of interaction was measured on an ITC200 microcalorimeter (Microcal), with a cell volume of 200 µL, under the same buffer conditions (20 mM Tris, pH 7.5, containing 5 mM NaCl) at 30°C. Twenty 1.9 µL aliquots of AIP TPR-domain at 350 µM were injected into 30 µM of human HSP90β. For peptide interactions twenty 1.9 µL aliquots of peptide ranging from 350 to 600 µM were injected into 30 µM of AIP TPR-domain. Heats of dilution were determined in a separate experiment by diluting protein or peptide into buffer, and the corrected data were fitted using a non-linear least-squares curve-fitting algorithm (Microcal Origin) with three floating variables: stoichiometry, binding constant and change in enthalpy of interaction. ATPase assays were previously described [44]–[46].

## FL-hHSP90β: full-length human HSP90β chaperone protein
  ΔH: -4.114 kcal/mol
  ΔS: 9.11 Cal/mol/deg
AIP-TPR-E192R:HSP90β
  N (stoichiometry): 0.47
